In patent US10704064B2, “Recombinant yeast producing 3-hydroxypropionic acid and method for producing 3-hydroxypropionic acid using the same” (SK Innovation Co., Ltd., priority 2014, dated 2020):
Some of these results come from one statement about several compounds together.

Tested on: MCR
Assay: archaeal MCR activity assay in E. coli lysates (microtitre plate)
Type: biochemical
Details: E. coli lysate
Description: pBAT T7 promoter based expression constructs were made for four different archaeal MCRs, Metallosphaera sedula (MCRms), Sulfolobus tokodai (MCRst), Candidatus caldiarchaeum (MCRcc), and Sulfolobales archaeon (MCRsa1).
Their activity was analyzed using the following assay conditions: 0.4 mM NAD(P)H; 0.15 mM Malonyl-CoA; Tris-HCl pH 7; 2 mM MgCl2. Assays on 20 times diluted lysates were performed in microtitre plate (MTP) format at RT. The oxidation of NADPHT or NADHT at A^365 in time was followed. […] However, the MCR activities were smaller than that measured for the tagged MCRca.

B1: MCRsa1: archaeal malonyl-CoA reductase of Sulfolobales archaeon Acd1, WP_020198954.1 (protein)
chain: MRRTLKAAILGATGLVGIEYVRMLSQHPYIKPAYLAGKGSVGKAYSEVVRWQTVGQVPKEVADMPVLPTDVNEIKKAGVDIVFSPLPQGAAGPVEEEFAKAGFPVISNSPDHRFDPDVPLMIPEVNGHTASLIDEQKKRRDWSGFIVTTPLCTAQGIAIPLAPIYRDFRVDSVFITTMQSLSGEGYPGVASLDVVDNIKVLGDAYDAKTVKEVTRILSEVKRNVPGTMDELTLSATTHRIATIHGHYEVMYVTFKEDVKVEKVKETLANFKGEPQDMKLPTAPSRPILITELDNRPQPYFDRWAGDVPGMSVVVGRLKQVNNRTVRLVSLIHNTVRGAAGGGILVAEYLIEKGYIPK
modifications: Sulfolobales archaeon
Q: With B1 as the molecule, how does the “relative NADH activity when compared to that measured on NADPH” value read?
A: Its value is 40-50%.
